Reference: PMC8233366
No constants are given. Whether binding was seen depends on the method and setting. Binding seen in cells or lysates may run through a third protein. These calls come from enrichment with a bait or labelling near it, and not all partners need be listed. For some assays here: A no says only that the protein was not detected with the bait. Where a sequence is shown, tags or fusion partners need not be part of it. Each block holds one molecule with its values, some of them ahead of it.

Sequences of proteins named here, by UniProt entry; tags and fusion partners are left off.
UniProt Q96Q15: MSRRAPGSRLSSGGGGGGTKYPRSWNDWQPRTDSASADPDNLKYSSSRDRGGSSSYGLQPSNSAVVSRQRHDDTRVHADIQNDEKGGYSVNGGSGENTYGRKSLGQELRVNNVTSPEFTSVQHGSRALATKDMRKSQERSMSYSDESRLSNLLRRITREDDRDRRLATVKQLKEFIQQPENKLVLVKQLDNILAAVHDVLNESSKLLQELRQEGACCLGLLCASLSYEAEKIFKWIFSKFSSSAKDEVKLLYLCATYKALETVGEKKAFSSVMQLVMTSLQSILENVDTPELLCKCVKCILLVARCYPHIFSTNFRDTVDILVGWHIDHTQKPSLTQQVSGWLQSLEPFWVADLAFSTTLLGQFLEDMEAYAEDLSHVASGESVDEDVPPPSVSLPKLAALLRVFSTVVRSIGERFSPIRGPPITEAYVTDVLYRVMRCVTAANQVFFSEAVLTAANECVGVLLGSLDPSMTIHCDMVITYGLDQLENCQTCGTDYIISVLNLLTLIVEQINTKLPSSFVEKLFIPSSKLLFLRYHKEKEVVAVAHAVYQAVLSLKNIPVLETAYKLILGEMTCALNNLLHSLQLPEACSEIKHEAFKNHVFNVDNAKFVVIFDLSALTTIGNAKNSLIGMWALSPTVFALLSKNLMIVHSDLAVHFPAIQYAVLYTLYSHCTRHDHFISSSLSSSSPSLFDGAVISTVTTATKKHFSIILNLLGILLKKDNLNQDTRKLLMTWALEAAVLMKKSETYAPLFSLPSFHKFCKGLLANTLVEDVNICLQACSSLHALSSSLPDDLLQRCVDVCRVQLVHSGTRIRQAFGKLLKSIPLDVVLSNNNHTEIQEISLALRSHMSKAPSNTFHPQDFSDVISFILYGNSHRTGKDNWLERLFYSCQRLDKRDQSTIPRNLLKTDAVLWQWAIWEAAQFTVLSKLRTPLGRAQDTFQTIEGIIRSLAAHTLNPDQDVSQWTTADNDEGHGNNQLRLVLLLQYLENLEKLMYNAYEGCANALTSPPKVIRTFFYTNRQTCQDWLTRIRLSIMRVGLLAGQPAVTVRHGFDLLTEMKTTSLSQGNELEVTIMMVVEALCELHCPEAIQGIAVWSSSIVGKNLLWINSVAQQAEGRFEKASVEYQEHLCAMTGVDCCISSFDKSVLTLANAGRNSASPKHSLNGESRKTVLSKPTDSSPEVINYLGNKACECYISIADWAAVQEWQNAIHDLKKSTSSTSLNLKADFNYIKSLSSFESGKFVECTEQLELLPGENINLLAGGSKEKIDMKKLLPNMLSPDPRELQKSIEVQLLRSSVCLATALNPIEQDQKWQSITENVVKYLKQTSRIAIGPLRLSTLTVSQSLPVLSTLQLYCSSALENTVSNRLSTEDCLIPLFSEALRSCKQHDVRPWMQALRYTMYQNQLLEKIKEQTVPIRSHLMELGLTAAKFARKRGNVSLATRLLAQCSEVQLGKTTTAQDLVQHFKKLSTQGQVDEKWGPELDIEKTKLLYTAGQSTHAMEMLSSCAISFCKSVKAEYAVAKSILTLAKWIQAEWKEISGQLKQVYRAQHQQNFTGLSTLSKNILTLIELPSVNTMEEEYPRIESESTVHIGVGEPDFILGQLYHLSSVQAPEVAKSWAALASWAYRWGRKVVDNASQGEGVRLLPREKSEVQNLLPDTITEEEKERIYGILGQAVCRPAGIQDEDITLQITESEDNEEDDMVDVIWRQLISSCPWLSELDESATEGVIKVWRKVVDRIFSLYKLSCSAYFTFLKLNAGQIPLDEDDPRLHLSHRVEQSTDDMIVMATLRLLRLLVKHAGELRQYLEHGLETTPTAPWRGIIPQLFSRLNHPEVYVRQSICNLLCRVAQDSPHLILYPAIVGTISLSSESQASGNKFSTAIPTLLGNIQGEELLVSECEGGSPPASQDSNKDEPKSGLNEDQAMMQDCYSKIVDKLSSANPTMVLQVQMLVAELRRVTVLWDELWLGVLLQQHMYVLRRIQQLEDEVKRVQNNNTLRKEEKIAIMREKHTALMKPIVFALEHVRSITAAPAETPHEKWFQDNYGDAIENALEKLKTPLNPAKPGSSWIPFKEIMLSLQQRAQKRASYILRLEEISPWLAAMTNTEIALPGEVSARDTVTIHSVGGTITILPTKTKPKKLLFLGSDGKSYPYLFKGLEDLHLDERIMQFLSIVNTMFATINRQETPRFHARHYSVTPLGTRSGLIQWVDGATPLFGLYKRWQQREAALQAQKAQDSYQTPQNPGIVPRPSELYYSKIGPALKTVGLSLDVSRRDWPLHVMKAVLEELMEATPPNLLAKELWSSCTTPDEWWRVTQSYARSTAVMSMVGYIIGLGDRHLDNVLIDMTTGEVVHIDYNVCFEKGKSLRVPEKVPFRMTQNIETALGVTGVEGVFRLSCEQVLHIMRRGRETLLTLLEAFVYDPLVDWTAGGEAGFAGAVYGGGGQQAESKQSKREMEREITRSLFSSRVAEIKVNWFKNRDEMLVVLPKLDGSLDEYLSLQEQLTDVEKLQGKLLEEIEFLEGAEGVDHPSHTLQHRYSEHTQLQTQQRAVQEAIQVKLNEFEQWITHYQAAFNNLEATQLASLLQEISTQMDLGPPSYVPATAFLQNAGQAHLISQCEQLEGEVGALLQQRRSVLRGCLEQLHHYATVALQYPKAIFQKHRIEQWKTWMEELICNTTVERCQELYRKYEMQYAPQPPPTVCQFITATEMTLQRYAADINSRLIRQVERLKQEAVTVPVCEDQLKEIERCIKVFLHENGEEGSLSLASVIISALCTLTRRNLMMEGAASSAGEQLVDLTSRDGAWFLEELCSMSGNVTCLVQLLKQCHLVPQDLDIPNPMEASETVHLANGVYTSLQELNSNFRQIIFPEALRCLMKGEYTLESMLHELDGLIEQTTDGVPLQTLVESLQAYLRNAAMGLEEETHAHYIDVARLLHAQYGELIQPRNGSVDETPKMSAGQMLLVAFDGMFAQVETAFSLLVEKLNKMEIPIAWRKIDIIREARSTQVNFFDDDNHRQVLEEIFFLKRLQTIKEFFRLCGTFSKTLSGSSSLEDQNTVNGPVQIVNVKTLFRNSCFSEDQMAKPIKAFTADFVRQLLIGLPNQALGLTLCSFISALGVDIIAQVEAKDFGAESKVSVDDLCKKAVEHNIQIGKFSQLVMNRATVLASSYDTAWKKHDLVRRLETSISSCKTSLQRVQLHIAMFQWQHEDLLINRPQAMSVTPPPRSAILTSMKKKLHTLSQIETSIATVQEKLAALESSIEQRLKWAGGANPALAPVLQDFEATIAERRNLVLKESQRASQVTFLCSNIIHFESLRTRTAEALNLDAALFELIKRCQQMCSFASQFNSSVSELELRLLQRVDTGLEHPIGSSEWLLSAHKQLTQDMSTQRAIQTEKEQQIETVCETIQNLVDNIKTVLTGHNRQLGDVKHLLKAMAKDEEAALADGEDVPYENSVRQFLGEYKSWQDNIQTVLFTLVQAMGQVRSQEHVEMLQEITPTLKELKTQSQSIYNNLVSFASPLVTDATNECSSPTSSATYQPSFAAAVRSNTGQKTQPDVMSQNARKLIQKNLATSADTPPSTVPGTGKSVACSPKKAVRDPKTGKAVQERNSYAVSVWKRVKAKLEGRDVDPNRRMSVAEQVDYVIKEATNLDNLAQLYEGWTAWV
UniProt Q86US8: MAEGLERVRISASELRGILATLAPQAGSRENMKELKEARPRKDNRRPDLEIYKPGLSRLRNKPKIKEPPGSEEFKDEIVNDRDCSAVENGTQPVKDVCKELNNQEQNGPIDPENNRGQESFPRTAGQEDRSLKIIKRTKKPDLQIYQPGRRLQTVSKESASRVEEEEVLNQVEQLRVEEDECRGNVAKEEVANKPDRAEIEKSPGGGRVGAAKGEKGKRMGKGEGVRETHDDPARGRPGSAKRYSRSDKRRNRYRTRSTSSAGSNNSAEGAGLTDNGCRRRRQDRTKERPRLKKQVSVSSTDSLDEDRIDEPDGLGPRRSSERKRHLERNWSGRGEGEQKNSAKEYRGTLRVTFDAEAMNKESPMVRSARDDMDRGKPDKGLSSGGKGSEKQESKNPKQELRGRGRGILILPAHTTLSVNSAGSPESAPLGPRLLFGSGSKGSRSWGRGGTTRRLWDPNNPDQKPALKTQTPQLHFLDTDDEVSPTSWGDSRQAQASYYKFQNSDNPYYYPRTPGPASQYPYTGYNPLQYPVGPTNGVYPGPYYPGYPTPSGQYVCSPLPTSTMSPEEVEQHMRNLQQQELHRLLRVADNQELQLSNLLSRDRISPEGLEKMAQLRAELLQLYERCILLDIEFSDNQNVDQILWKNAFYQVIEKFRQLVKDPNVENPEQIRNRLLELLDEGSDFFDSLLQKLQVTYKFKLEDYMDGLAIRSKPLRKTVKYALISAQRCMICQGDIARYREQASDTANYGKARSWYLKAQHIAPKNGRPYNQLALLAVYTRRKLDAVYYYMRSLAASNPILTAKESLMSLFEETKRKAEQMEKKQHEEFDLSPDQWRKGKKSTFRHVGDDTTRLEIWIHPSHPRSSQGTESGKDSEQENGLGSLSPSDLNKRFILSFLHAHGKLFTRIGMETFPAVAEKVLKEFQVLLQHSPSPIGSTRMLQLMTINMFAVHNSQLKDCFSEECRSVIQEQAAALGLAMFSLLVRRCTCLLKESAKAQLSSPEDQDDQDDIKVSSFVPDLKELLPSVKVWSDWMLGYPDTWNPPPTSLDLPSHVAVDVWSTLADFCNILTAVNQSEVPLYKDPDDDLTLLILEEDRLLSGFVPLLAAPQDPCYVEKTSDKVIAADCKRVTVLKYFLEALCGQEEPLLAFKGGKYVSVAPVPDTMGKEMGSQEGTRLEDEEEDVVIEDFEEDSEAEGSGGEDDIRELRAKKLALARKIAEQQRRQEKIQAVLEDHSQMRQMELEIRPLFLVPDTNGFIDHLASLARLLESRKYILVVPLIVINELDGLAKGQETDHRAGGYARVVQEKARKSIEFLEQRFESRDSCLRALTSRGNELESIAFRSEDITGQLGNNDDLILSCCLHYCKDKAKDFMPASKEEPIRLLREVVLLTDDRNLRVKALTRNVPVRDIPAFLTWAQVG
UniProt Q9NPJ4: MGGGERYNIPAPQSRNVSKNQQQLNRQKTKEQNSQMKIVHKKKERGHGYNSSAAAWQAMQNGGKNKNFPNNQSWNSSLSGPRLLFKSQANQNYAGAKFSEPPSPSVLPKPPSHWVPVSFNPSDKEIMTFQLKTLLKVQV
UniProt O95793: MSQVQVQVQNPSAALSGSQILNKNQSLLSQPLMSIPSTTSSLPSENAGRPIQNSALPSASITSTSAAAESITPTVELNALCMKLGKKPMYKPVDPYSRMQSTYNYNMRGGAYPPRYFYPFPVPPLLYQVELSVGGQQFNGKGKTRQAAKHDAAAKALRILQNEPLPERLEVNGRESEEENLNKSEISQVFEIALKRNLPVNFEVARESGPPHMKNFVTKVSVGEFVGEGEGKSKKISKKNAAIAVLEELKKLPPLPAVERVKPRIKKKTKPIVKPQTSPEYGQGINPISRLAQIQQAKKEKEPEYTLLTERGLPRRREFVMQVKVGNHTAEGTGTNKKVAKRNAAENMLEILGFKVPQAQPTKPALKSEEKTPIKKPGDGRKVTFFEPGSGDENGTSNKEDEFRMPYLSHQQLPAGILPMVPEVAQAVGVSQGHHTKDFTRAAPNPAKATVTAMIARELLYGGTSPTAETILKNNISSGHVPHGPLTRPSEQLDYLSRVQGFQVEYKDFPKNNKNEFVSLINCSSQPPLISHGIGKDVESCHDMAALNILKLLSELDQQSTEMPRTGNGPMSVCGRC

Experiments:
FLAG-TurboID-UPF1 [1] = target: T1, FLAG-TurboID-UPF1 (UniProt Q92900); experiment: proximity labelling; FLAG-TurboID-UPF1 against FLAG-TurboID control in WT cells; 50 µM biotin for 15 min; streptavidin beads; label-free mass spectrometry
T1 sequence: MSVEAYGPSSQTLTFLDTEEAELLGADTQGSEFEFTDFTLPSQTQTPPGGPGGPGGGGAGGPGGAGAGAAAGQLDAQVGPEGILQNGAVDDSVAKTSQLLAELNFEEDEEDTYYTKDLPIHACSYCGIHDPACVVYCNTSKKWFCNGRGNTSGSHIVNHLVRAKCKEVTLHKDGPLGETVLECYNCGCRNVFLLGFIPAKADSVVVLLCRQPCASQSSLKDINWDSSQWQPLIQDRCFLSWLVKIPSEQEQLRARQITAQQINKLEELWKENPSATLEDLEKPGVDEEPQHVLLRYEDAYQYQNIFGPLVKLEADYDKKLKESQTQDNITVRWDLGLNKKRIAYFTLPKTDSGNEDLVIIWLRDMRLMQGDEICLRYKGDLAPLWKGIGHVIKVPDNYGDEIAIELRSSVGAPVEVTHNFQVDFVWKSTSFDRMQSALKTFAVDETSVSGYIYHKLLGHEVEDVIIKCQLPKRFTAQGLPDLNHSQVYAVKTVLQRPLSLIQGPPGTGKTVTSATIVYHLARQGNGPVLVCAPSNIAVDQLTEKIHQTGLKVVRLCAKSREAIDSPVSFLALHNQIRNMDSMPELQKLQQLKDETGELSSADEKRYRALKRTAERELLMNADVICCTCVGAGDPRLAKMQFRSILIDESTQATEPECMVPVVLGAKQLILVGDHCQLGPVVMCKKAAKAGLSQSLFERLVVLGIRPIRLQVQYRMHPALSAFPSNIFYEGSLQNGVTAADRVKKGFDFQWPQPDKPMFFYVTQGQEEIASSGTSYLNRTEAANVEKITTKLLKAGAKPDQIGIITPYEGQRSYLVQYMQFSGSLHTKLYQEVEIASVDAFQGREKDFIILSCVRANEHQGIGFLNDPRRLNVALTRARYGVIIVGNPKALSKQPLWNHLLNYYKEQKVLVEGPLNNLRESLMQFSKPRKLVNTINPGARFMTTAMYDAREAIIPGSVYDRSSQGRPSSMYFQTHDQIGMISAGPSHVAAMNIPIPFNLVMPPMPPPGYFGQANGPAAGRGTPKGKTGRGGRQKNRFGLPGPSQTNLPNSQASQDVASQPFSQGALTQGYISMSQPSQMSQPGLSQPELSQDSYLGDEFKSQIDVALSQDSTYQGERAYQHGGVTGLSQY

FLAG-TurboID-UPF1 [2] = target: T1, FLAG-TurboID-UPF1; experiment: proximity labelling; FLAG-TurboID-UPF1 against FLAG-TurboID control in SMG7 KO cells with control or SMG5 KD; 50 µM biotin for 15 min; streptavidin beads; label-free mass spectrometry
[3] = target: T2, FLAG-tagged SMG5 1-853 (human) (UniProt Q9UPR3); experiment: affinity purification with mass spectrometry; FLAG-tagged SMG5 WT or 1-853 or FLAG control in WT 293 cells, induced 72 h with doxycycline; FLAG IP, mild wash buffer, elution with FLAG peptide; label-free mass spectrometry
T2 sequence: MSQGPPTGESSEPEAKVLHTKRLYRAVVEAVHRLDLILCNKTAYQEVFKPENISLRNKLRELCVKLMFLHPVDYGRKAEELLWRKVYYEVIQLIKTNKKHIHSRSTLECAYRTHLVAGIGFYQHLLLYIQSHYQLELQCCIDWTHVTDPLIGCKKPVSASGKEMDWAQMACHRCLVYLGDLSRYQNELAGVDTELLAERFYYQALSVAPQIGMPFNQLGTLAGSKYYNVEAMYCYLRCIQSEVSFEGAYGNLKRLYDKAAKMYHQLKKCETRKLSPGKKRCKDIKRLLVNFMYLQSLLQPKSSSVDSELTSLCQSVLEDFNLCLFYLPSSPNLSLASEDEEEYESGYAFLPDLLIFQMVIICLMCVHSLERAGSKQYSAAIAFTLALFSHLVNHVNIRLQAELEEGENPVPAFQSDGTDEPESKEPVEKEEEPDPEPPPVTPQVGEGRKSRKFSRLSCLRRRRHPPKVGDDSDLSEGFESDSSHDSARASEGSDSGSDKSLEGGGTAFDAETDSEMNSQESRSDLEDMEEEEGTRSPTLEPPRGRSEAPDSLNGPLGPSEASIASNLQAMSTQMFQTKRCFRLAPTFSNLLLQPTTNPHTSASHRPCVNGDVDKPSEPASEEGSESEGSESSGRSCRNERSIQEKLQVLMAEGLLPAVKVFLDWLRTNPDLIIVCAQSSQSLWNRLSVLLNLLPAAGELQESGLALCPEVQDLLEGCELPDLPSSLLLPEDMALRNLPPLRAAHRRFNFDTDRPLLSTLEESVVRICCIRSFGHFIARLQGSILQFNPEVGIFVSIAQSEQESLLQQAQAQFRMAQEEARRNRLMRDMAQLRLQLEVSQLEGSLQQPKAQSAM

[4] = target: T3, FLAG-tagged SMG5 WT (human) (UniProt Q9UPR3); experiment: as above
T3 sequence: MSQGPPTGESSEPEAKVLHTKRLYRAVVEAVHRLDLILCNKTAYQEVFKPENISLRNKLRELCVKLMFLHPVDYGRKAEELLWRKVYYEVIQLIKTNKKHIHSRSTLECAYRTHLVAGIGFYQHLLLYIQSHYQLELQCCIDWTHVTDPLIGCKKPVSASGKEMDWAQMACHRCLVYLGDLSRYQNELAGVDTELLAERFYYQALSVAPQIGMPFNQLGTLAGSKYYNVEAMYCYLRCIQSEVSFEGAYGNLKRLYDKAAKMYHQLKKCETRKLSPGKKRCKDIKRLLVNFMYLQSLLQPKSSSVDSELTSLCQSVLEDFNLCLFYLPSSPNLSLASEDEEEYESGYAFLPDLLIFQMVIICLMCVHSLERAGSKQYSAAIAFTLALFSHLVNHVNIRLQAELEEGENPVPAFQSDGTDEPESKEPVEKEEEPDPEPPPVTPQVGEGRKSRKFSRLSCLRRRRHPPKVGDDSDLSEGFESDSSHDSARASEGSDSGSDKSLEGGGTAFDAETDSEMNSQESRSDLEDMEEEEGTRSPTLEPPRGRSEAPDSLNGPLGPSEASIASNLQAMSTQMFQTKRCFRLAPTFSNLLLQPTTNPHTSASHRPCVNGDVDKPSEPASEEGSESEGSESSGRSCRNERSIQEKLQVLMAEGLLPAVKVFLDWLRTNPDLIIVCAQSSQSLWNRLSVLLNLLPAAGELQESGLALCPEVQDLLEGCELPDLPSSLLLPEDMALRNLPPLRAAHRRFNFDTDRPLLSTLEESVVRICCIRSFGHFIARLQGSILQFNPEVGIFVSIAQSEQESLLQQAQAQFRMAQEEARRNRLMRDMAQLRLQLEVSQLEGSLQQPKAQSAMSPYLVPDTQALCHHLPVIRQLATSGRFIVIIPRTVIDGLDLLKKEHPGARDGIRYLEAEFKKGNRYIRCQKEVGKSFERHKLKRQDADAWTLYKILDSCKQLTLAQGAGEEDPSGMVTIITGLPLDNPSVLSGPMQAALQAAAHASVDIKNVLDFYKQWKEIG

Molecule: SMG1 (endogenous) (from UniProt Q96Q15 1-3661)
- binding (FLAG-TurboID-UPF1 [1]): no binding (only in WT cells)
- binding (FLAG-TurboID-UPF1 [2]): binds

Molecule: SMG6 (endogenous) (from UniProt Q86US8 1-1419)
- binding [3]: no binding
- binding [4]: no binding

Molecule: PNRC2 (endogenous) (from UniProt Q9NPJ4 1-139)
- binding [3]: no binding

B1: SMG8 (endogenous) (protein, UniProt Q8ND04 1-991)
chain: MAGPVSLRDLLMGASAWMGSESPGGSPTEGGGSAAGGPEPPWREDEICVVGIFGKTALRLNSEKFSLVNTVCDRQVFPLFRHQDPGDPGPGIRTEAGAVGEAGGAEDPGAAAGGSVRGSGAVAEGNRTEAGSQDYSLLQAYYSQESKVLYLLLTSICDNSQLLRACRALQSGEAGGGLSLPHAEAHEFWKHQEKLQCLSLLYLFSVCHILLLVHPTCSFDITYDRVFRALDGLRQKVLPLLKTAIKDCPVGKDWKLNCRPCPPRLLFLFQLNGALKVEPPRNQDPAHPDKPKKHSPKRRLQHALEDQIYRIFRKSRVLTNQSINCLFTVPANQAFVYIVPGSQEEDPVGMLLDQLRSHCTVKDPESLLVPAPLSGPRRYQVMRQHSRQQLSFHIDSSSSSSSGQLVDFTLREFLWQHVELVLSKKGFDDSVGRNPQPSHFELPTYQKWISAASKLYEVAIDGKEEDLGSPTGELTSKILSSIKVLEGFLDIDTKFSENRCQKALPMAHSAYQSNLPHNYTMTVHKNQLAQALRVYSQHARGPAFHKYAMQLHEDCYKFWSNGHQLCEERSLTDQHCVHKFHSLPKSGEKPEADRNPPVLYHNSRARSTGACNCGRKQAPRDDPFDIKAANYDFYQLLEEKCCGKLDHINFPVFEPSTPDPAPAKNESSPAPPDSDADKLKEKEPQTQGESTSLSLALSLGQSTDSLGTYPADPQAGGDNPEVHGQVEVKTEKRPNFVDRQASTVEYLPGMLHSNCPKGLLPKFSSWSLVKLGPAKSYNFHTGLDQQGFIPGTNYLMPWDIVIRTRAEDEGDLDTNSWPAPNKAIPGKRSAVVMGRGRRRDDIARAFVGFEYEDSRGRRFMCSGPDKVMKVMGSGPKESALKALNSDMPLYILSSSQGRGLKPHYAQLMRLFVVVPDAPLQIILMPQVQPGPPPCPVFYPEKQEITLPPDGLWVLRFPYAYVTERGPCFPPKENVQLMSYKVLRGVLKAVTQ
- binding (FLAG-TurboID-UPF1 [1]): no binding (only in WT cells)
- binding (FLAG-TurboID-UPF1 [2]): binds

Further lines, results first:

- binding (FLAG-TurboID-UPF1 [1]): binds
Molecule: STAU1 (endogenous) (from UniProt O95793 1-577)

- binding (FLAG-TurboID-UPF1 [1]): no binding (only in WT cells)
- binding (FLAG-TurboID-UPF1 [2]): binds
B2: SMG9 (endogenous) (protein, UniProt Q9H0W8 1-520)
chain: MSESGHSQPGLYGIERRRRWKEPGSGGPQNLSGPGGRERDYIAPWERERRDASEETSTSVMQKTPIILSKPPAERSKQPPPPTAPAAPPAPAPLEKPIVLMKPREEGKGPVAVTGASTPEGTAPPPPAAPAPPKGEKEGQRPTQPVYQIQNRGMGTAAPAAMDPVVGQAKLLPPERMKHSIKLVDDQMNWCDSAIEYLLDQTDVLVVGVLGLQGTGKSMVMSLLSANTPEEDQRTYVFRAQSAEMKERGGNQTSGIDFFITQERIVFLDTQPILSPSILDHLINNDRKLPPEYNLPHTYVEMQSLQIAAFLFTVCHVVIVVQDWFTDLSLYRFLQTAEMVKPSTPSPSHESSSSSGSDEGTEYYPHLVFLQNKARREDFCPRKLRQMHLMIDQLMAHSHLRYKGTLSMLQCNVFPGLPPDFLDSEVNLFLVPFMDSEAESENPPRAGPGSSPLFSLLPGYRGHPSFQSLVSKLRSQVMSMARPQLSHTILTEKNWFHYAARIWDGVRKSSALAEYSRLLA

- binding (FLAG-TurboID-UPF1 [1]): binds
B3: STAU2 (endogenous) (protein, UniProt Q9NUL3 1-570)
chain: MANPKEKTAMCLVNELARFNRVQPQYKLLNERGPAHSKMFSVQLSLGEQTWESEGSSIKKAQQAVANKALTESTLPKPVQKPPKSNVNNNPGSITPTVELNGLAMKRGEPAIYRPLDPKPFPNYRANYNFRGMYNQRYHCPVPKIFYVQLTVGNNEFFGEGKTRQAARHNAAMKALQALQNEPIPERSPQNGESGKDVDDDKDANKSEISLVFEIALKRNMPVSFEVIKESGPPHMKSFVTRVSVGEFSAEGEGNSKKLSKKRAATTVLQELKKLPPLPVVEKPKLFFKKRPKTIVKAGPEYGQGMNPISRLAQIQQAKKEKEPDYVLLSERGMPRRREFVMQVKVGNEVATGTGPNKKIAKKNAAEAMLLQLGYKASTNLQDQLEKTGENKGWSGPKPGFPEPTNNTPKGILHLSPDVYQEMEASRHKVISGTTLGYLSPKDMNQPSSSFFSISPTSNSSATIARELLMNGTSSTAEAIGLKGSSPTPPCSPVQPSKQLEYLARIQGFQAALSALKQFSEQGLDPIDGAMNIEKGSLEKQAKHLREKADNNQAPPGSIAQDCKKSNSAV
